# Library screen at single concentrations

The chains behind the UniProt entries cited, without tags or fusion partners.
UniProt P9WNZ1, whole entry: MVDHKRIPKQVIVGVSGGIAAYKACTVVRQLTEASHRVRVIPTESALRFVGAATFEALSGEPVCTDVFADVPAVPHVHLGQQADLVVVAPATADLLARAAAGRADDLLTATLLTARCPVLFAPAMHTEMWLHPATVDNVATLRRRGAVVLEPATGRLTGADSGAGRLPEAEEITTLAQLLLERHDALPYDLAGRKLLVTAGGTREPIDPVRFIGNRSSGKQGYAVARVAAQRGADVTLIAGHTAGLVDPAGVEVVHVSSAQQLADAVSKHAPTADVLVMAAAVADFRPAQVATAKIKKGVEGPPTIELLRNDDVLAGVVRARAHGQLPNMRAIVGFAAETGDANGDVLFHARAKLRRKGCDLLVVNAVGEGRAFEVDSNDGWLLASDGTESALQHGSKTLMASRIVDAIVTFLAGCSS

Values are the deposited “Percent Effect”, in %.
How 0% and 100% were set is not recorded. Most values in the screen are low, and negative values occur.
Compounds were drawn at random from those tested, without regard to their results.
Two or more numbers in one place are separate tests of the same structure; such repeats can differ widely.

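Coenzyme A biosynthesis protein CoaBC, Mycobacterium tuberculosis (UniProt P9WNZ1). Enzyme assay of CoaBC with a phosphate dye (Biomol Green) read at 650 nm. Compounds at 30 µM. Direction is inferred from only a few compounds that gave an IC50; most scored high, so higher reads as stronger inhibition. Most strong results did not repeat in a second test. Size under these conditions: about 67,000 compounds, about 40 of them at 50% or above in at least one test.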

{"compound": "CC(=O)N1CCN(C[C@H]2CC[C@@H](Cc3ccc4ncccc4c3)O2)CC1", "effect": 3.23}
{"compound": "Cc1cc(C2CCC2)nc(NCC(C)(C)CO)n1", "effect": 3.169}
{"compound": "CCS(=O)(=O)c1ccccc1N1CCC(N)CC1", "effect": 3.061}
{"compound": "O=S(=O)(NCCc1ccccc1C(F)(F)F)N1CCOCC1", "effect": 10.44}
{"compound": "COc1cccc(CN2CCCC3(CCN(C(CO)CO)C3)C2)c1", "stereo": "configuration not stated", "effect": 10.6}
{"compound": "O=c1ccncn1Cc1csc(C2CC2)n1", "effect": 3.213}
{"compound": "COc1cccc(-c2n[nH]cc2CNCC2CCS(=O)(=O)C2)c1", "stereo": "configuration not stated", "effect": -1.927}
{"compound": "CNc1ncc(CN(C)C(=O)[C@@]23CNC[C@@H]2CN(C2CCCC2)C3)cn1", "effect": 1.238}
{"compound": "Cn1c(=O)c2cc(C(=O)NCCOCC(F)(F)F)ccc2n(C)c1=O", "effect": -0.3681}
{"compound": "CCn1c(CC2CCN(C(=O)c3cc(C(C)C)n[nH]3)CC2)n[nH]c1=O", "effect": 8}
{"compound": "COc1cccc(CN2CCC3(CCN(c4ncc(F)cn4)CC3)C2)c1", "effect": -25.58}
{"compound": "COC(=O)C(C)N(Cc1cc(=O)n(C)c(=O)n1C)C1CC1", "stereo": "configuration not stated", "effect": 1.195}
{"compound": "CN(C)C(=O)N1CCN(Cc2noc(Cc3ccccc3)n2)CC1", "effect": -2.057}
{"compound": "Cc1ccc(S(=O)(=O)N2CCN(CCC(N)=O)CC2)s1", "effect": 4.377}
{"compound": "O=C(C1CCOc2ccccc21)N1CCOc2ccc(F)cc21", "stereo": "configuration not stated", "effect": 1.594}
{"compound": "CCC(C)(C)NC(=O)c1ncn2c1CN(C)S(=O)(=O)c1ccccc1-2", "effect": -4.362}
{"compound": "COc1cc(C2(C(=O)NCCn3ccnc3)CCCC2)ccc1C", "effect": -4.912}
{"compound": "COc1ccc(F)cc1S(=O)(=O)NCCn1cnc(C)cc1=O", "effect": 1.211}
{"compound": "Cc1nc(C2CCCN2CC(=O)NCCOc2ccc(F)cc2)no1", "stereo": "configuration not stated", "effect": -3.325}
{"compound": "N#Cc1cn(C2CC2)c(=O)n(CC(O)c2ccc(F)cc2)c1=O", "stereo": "configuration not stated", "effect": 6.905}
{"compound": "O=C(N1CCCC1)N1C[C@@H]2CCNC[C@@H]21", "effect": 4.071}
{"compound": "COc1ccccc1CC1CCN(C(=O)CCc2ccccn2)CC1", "effect": -0.5894}
{"compound": "CC(C)CCN(c1cn[nH]c1)S(=O)(=O)c1cccc(C#N)c1", "effect": 7.937}
{"compound": "CCCn1ncc(C(=O)N2CCN(C(=O)c3ccc[nH]3)CC2)c1C", "effect": 6.318}
{"compound": "Nc1nc2c(c(NCC(c3cccnc3)N3CCOCC3)n1)CCNC2", "stereo": "configuration not stated", "effect": 2.81}
{"compound": "O=C1O[C@@H]2CN(c3cnccn3)C[C@@H]2N1CCCc1ccc(F)cc1", "effect": "37.27 and 10.58"}
{"compound": "CSC1=Nc2c(cnn2-c2cccc(Cl)c2)C2=NCCCN12", "effect": 2.632}
{"compound": "O=C(CN1CCC(c2nnc(C(F)(F)F)o2)CC1)NCc1ccccc1", "effect": 4.97}
{"compound": "CC(C)c1noc(CCNC(=O)NCC2COc3ccccc3O2)n1", "stereo": "configuration not stated", "effect": 2.02}
{"compound": "Cc1cc(N2CCN(Cc3ccc(-c4cc[nH]n4)o3)CC2)cc(C)n1", "effect": -22.32}
{"compound": "COCCN1CCC(c2nc3ccc(NC(C)C)cn3n2)CC1", "effect": 5.263}
{"compound": "O=C(c1cn(CC(=O)N2CCc3[nH]cnc3C2)c2ccccc12)C1CC1", "effect": 15.33}
{"compound": "O=C(Cc1ccc2c(c1)CCO2)N1CCN(c2nccs2)CC1", "effect": 6.378}
{"compound": "Cc1ncsc1CNCC(C)c1nc2ccccc2o1", "stereo": "configuration not stated", "effect": 0.3891}
{"compound": "COCCN1C[C@H]2[C@@H](C1)N(Cc1cnn(C)c1)CC[C@H]2OC", "effect": 4.261}
{"compound": "CNC(=O)[C@@]12CCCN(c3ncccn3)[C@@H]1CN(C)C2", "effect": -1.648}
{"compound": "CS(=O)(=O)N[C@@H]1CCO[C@]2(CCN(C(=O)C3=CCCC3)C2)C1", "effect": 3.342}
{"compound": "CCCC(=O)N1CCC2(CC1)CC(NC(C)=O)c1ccccc1O2", "stereo": "configuration not stated", "effect": -0.2418}
{"compound": "Cc1ccc(CN2CC(O)CN(C(=O)C3CC3)CC2=O)cc1", "stereo": "configuration not stated", "effect": -3.148}
{"compound": "CC(=O)c1cc(CC(=O)NCc2ccc(F)cc2)cs1", "effect": -6.183}
{"compound": "O=C(c1cccnc1-n1cncn1)N1CCN(CC(F)(F)F)CC1", "effect": 1.282}
{"compound": "O=C(CCNc1ncccn1)NCCc1ccn(-c2ccccc2)n1", "effect": 10.18}
{"compound": "CCc1cc(=O)n(CC(=O)N2CCCCC2)c(-c2cccc(F)c2)n1", "effect": 6.122}
{"compound": "CC(=O)N1CCC2(CC1)c1ncc(-c3ccccc3)n1CCN2C(C)=O", "effect": 7.172}
{"compound": "CC[C@@]1(O)CCN(C(=O)CCSCc2ccc(F)cc2)C[C@H]1O", "effect": 0.8696}
{"compound": "O=C1CC2(CCN(S(=O)(=O)C3CC3)C2)CN1c1cncnc1", "stereo": "configuration not stated", "effect": 2.411}
{"compound": "CN(Cc1ccc2c(c1)OCO2)C(=O)c1ccc(C2CCCNC2)cc1", "stereo": "configuration not stated", "effect": -27.06}
{"compound": "O=C(O)CCc1cc2n(n1)CCCN(C(=O)c1ccc3cc[nH]c3c1)C2", "effect": 3.625}
{"compound": "Cc1nc(CN(C)C2CCN(Cc3ccc4c(c3)CCC4)C2)no1", "stereo": "configuration not stated", "effect": 3.916}

The last 3 entries again:

Compound	effect
CN(Cc1ccc2c(c1)OCO2)C(=O)c1ccc(C2CCCNC2)cc1 (configuration not stated)	-27.06
O=C(O)CCc1cc2n(n1)CCCN(C(=O)c1ccc3cc[nH]c3c1)C2	3.625
Cc1nc(CN(C)C2CCN(Cc3ccc4c(c3)CCC4)C2)no1 (configuration not stated)	3.916

Measurements from “University of Dundee, Small-Polar-MMV Screening Library” (2021), ChEMBL document CHEMBL3988442.